Measured values as given in patent US8143240B2, “17α, 21-dihydroxypregnene esters as antiandrogenic agents” (Cosmo S.p.A., priority 2001, dated 2012).
Some results were stated once for a whole list of compounds, not compound by compound. For at least one compound, name, drawing or mass did not settle the structure.

Tested on: flank organ
Experiment: topical antiandrogenic activity test (hamster flank organ, Voigt and Hsia)
Format: in vivo, hamsters
Conditions: dose not stated
Description: The test was carried out on sexually immature female hamsters aged 6-8 weeks and weighing 65-90 grams.
At the beginning of the tests, the back of each animal was shaved to evidence the respective flank organ bilaterally. Animals were then subdivided into homogeneous groups and treated daily for 21 consecutive days. The tested steroids were dissolved at concentrations ranging from 100 to 400 micrograms in 50 microliters of an acetone solution containing 4 micrograms of testosterone propionate (TP) or 4 micrograms of dihydrotestosterone (DHT). 50 microliters of the solutions were applied to the right flank organ, while the contralateral organ used as individual control received only acetone (50 microliters). Control groups received TP or DHT alone, following the same procedures.
At the end of the tests, the animals were killed under ether anesthesia and the whole skine of the back was taken. The area of both flank organs was measured, separately, with transillumination. The mean differences between areas treated with the tested steroids and those treated with the carrier alone were calculated for each group, and said mean differences were compared, as inhibition percentages, to the mean differences between the areas in the control groups treated with either TP or DHT.

SMILES	inhibition of the androgenic action of testosterone propionate (TP)
CCC(=O)O[C@]1(C(=O)CO)CC[C@H]2[C@@H]3CCC4=CC(=O)CC[C@]4(C)C3=CC[C@@]21C [Compound A, 17α-propionyl-21-hydroxy-pregna-4,9-diene-3,20-dione]	more than 80%
CCCC(=O)OCC(=O)[C@@]1(OC(=O)CCC)CC[C@H]2[C@@H]3CCC4=CC(=O)CC[C@]4(C)C3=CC[C@@]21C [Ex. 1, 17α,21-dibutanoyl-pregna-4,9-diene-3,20-dione]	more than 80%
